Data taken from the supplement of paper PMC12819154, “High-throughput peptide-centric local stability assay extends protein–ligand identification to membrane proteins, tissues and bacteria” (Nature Structural & Molecular Biology, 2025).
The list shows a part of the results. Most values lie at the level of the controls, where differences are scatter.

The chains behind the UniProt entries cited, without tags or fusion partners. Where a name states a change or a piece, a line headed by the entry shows the natural chain unless it says otherwise.
UniProt Q06547, whole entry: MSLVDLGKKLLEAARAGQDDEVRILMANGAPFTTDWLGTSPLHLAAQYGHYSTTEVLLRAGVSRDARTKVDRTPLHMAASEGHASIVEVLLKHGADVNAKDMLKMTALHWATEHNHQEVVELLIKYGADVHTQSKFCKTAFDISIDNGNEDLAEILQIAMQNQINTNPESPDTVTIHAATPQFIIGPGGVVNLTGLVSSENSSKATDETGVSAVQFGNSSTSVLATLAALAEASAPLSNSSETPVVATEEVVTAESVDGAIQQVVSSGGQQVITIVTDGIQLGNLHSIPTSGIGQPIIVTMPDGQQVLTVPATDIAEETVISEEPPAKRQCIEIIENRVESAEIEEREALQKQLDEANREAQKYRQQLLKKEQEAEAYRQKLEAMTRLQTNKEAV
UniProt Q01968: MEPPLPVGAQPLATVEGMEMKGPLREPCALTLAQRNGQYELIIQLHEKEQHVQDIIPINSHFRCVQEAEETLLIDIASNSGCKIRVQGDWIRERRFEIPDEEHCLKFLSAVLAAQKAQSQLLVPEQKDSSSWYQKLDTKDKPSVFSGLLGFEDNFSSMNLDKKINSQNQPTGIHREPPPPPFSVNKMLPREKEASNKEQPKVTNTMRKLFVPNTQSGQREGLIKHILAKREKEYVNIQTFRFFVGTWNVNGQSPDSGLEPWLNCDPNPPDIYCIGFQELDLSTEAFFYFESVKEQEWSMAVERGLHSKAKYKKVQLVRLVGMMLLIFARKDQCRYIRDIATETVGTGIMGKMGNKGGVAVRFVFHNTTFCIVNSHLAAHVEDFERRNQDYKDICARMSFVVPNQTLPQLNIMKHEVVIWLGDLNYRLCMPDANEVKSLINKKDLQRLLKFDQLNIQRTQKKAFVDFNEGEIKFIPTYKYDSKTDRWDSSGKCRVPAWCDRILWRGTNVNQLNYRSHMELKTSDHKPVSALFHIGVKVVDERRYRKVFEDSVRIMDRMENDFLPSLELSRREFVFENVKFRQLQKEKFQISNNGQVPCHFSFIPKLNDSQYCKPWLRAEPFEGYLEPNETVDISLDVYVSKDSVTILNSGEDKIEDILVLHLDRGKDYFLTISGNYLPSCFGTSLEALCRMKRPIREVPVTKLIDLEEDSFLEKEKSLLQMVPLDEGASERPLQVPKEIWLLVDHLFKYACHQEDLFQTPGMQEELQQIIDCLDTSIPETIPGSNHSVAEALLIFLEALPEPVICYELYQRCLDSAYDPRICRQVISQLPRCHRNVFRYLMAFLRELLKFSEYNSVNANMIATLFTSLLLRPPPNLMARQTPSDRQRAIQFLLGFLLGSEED
UniProt P84085: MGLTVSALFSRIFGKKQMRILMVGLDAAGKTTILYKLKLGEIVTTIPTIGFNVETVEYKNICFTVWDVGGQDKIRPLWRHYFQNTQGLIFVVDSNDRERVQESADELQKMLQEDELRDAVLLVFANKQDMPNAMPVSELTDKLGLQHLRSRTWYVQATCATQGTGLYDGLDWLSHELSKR
UniProt Q0VDD7: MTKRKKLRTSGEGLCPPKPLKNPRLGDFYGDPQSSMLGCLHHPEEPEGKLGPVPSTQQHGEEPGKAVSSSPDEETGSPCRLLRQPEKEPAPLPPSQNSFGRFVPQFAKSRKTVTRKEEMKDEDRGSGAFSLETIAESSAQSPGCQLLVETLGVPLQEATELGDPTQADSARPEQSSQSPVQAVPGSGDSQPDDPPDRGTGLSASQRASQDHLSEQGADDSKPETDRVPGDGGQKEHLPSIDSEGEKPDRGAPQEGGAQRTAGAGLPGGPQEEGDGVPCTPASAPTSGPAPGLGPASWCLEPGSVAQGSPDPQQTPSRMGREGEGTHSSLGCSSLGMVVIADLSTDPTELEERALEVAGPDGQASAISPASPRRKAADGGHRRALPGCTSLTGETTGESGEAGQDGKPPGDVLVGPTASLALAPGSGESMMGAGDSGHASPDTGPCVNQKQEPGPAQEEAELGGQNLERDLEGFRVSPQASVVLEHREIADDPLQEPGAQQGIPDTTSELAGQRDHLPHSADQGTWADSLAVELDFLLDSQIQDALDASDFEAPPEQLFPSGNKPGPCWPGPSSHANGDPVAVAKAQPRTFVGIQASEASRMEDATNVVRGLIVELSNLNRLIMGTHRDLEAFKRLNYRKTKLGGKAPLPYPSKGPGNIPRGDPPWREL
UniProt Q03923: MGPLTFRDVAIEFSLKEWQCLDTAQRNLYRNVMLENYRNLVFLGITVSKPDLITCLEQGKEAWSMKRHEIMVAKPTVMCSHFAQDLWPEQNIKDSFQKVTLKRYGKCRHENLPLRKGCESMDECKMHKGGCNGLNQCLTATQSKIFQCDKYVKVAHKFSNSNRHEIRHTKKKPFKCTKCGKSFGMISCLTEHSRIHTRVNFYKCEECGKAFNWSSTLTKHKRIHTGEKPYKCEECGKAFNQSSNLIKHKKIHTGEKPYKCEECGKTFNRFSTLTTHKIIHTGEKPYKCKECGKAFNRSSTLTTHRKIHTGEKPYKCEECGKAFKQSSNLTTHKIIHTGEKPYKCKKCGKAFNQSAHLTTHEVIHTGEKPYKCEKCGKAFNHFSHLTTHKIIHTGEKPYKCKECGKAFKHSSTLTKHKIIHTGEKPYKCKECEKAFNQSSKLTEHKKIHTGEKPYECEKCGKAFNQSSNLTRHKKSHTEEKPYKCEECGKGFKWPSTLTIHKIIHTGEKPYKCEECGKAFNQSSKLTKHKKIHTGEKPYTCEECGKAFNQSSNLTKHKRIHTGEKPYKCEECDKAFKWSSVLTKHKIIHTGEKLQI
UniProt Q01658: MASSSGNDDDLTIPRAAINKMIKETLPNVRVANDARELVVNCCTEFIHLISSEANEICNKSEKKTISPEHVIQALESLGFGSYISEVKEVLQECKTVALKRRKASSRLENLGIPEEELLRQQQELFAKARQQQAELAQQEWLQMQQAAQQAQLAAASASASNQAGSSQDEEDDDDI
UniProt Q03169: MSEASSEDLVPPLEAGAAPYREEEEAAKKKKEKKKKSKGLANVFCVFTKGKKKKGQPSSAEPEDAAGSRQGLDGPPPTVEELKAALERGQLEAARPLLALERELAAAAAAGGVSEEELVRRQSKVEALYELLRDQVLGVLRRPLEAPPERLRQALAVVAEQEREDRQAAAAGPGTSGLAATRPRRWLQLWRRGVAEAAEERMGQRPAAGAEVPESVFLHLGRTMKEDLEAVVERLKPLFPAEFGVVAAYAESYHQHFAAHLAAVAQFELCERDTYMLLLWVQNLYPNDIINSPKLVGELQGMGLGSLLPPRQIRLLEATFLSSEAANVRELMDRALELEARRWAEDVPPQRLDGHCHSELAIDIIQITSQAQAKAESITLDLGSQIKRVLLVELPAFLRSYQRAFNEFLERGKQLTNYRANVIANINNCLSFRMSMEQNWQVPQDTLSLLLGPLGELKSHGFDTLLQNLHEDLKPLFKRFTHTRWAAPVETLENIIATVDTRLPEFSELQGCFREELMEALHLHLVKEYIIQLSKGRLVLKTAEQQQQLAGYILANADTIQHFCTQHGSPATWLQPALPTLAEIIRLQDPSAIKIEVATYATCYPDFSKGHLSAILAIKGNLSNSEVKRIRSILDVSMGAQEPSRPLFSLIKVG
UniProt Q06210: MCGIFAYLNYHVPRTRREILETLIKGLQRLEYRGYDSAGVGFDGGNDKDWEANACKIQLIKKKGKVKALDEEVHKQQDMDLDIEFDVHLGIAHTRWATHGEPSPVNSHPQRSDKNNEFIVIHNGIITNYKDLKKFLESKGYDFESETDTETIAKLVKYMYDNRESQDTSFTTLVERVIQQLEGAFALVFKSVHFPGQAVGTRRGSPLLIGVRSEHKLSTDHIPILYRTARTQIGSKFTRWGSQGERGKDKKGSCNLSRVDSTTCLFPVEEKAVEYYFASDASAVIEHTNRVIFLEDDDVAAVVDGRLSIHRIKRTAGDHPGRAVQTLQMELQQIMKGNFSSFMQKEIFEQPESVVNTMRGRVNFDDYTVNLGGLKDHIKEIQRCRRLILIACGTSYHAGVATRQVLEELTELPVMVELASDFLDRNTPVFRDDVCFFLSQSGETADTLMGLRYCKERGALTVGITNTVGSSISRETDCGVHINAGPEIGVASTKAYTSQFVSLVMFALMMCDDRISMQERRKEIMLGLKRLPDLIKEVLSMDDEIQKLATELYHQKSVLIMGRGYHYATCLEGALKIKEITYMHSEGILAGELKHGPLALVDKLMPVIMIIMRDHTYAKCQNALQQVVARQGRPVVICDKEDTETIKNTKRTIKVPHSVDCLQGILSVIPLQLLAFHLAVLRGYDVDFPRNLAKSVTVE

Each target was assayed with Cc1nc(Nc2ncc(C(=O)Nc3c(C)cccc3Cl)s2)cc(N2CCN(CCO)CC2)n1 [dasatinib] (assay: log2 fold change of tryptic peptide abundance, ligand vs vehicle (limited proteolysis) (log2 ratio); higher = more trypsin-susceptible (destabilized)). Settings: ligand concentration: 5 uM; sample: K562 cleared lysate.

Row | Target | log2 fold change
1 | GABPB1 (peptide sequence: TPLHMAASEGHASIVEVLLK, peptide start residue: 73) (UniProt Q06547) | 0.355
2 | OCRL (peptide sequence: VQGDWIR, peptide start residue: 86) (UniProt Q01968) | 0.252
3 | UniProt P84085 (peptide sequence: MLQEDELR, peptide start residue: 110) | -0.166
4 | C19orf57 (peptide sequence: VSPQASVVLEHR, peptide start residue: 475) (UniProt Q0VDD7) | -0.756
5 | UniProt Q03923 (peptide sequence: NVMLENYR, peptide start residue: 31) | -0.157
6 | DR1 (peptide sequence: EVLQECKTVALK, peptide start residue: 89) (UniProt Q01658) | -0.292
7 | TNFAIP2 (peptide sequence: GQLEAARPLLALER, peptide start residue: 89) (UniProt Q03169) | 0.388
8 | GFPT1 (peptide sequence: DKKGSCNLSR, peptide start residue: 249) (UniProt Q06210) | 1.05
